# Reference: PubChem BioAssay AID1347423 (Functional Genomics Laboratory (NCATS/FGL), 2020)
# Hit rate of the full screen: of about 52,000 sequences, about 210 (0.4%) were called active.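 Rule for the calls: active = gene whose silencing raises cell survival under the drug, median off-target-corrected z-score across its silencing RNAs 2 or more; inactive = the rest.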 The list shows a part of the results.
# Assay: Resistance to Poly (ADP-Ribose) Polymerase inhibitor: Gene Identification via Genome-wide siRNA Screen
# Conditions: mouse BRCA2 R2336H ES cells, olaparib, CellTiter-Glo viability; active compounds read high
# In short: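 Genome-wide siRNA screen (3 siRNAs/gene, 20 nM) in mouse ES cells carrying hypomorphic BRCA2 R2336H; olaparib 500 nM added 48 h post-transfection, CellTiter-Glo viability 72 h later. Normalized to plate-median negative control; MAD z-scores, gene median, seed-adjusted.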
row,Sequence,z-score
1,CGAACACUUUAACAUUUUGTT against BC053393,inactive: 0.542
2,CCUACGGACUCAGGAAAUATT against Tle6,inactive: 0.254
3,CCCUAAUAGUGAAUACAUGTT against Icos,inactive: 0.427
4,GGAAUUUUUUCAUACCACUTT against Waspip,inactive: 1.14
5,GCCUUACACUGUAGUCAGGTT against C130023O10Rik,inactive: 0.508
6,GGAGAUGAGGAAGCUCUUCTT against Usp4,inactive: -0.357
7,CGUUACCCUGGAUUCCGAUTT against 4921511H03Rik,inactive: 0.537
8,CCUGCCUAUUGUUUCAGAATT against Ifna11,inactive: 0.134
9,GCCAGCAUAAAUAUACUUUTT against 9030421J09Rik,inactive: -0.26
10,GCUCAAGUGGGCCUUUAGCTT against Hpcal1,inactive: 0.182
11,GGAGUAUAUCUCGUUUAUATT against Ube2e2,inactive: -0.466
12,GGACAAGGAAUUCUAACAGTT against Gbif,inactive: -0.424
13,GGAAUGGAAAUUUGAUACUTT against Ddx48,inactive: -1.56
14,GCAAAGUCAAGAGAAGUAUTT against A430033K04,inactive: -1.98
15,CCUUAUCAGCCAGGGUUGGTT against Asb9,inactive: -0.058
16,GCCAGAUCUUAUCAUUAUUTT against 2700075B01Rik,inactive: -0.0865
17,GGACAAGUUUUCCUUUUCUTT against Phf2,inactive: 0.468
18,GGAAAUGGUGAAUAUGCGUTT against Rnf146,inactive: 0.171
19,GGGAAAGUUUCUGCAUUCUTT against Sprrl7,inactive: -0.9
20,GGAUGUCAAGCUUUCCCAATT against 3632451O06Rik,inactive: 0.731
21,CCUUAUUGGGUCAUAAGCATT against 2210403B10Rik,inactive: 0.798
22,GGCUCAGGUGCCAAUUGCATT against Mfng,inactive: -0.918
23,GGAUUUUUGAUCUACCUAUTT against Slc16a7,inactive: 1.65
24,GGAAGACGGCAAUCAACCATT against Cyp2c37,inactive: 1.09
25,GGGCUAAUGAGAUAGGUUUTT against Slc19a2,inactive: 0.453
26,GGUCAGUCAGAACAUGCUATT against Xrcc2,inactive: 0.0448

# Copied from the list:
# Under z-score, GGUCAGUCAGAACAUGCUATT against Xrcc2 has inactive: 0.0448
# Under z-score, GGGCUAAUGAGAUAGGUUUTT against Slc19a2 has inactive: 0.453
# Under z-score, GGAAGACGGCAAUCAACCATT against Cyp2c37 has inactive: 1.09
# Under z-score, CCUACGGACUCAGGAAAUATT against Tle6 has inactive: 0.254
# Under z-score, GGAUGUCAAGCUUUCCCAATT against 3632451O06Rik has inactive: 0.731

# Two entries from above, as tab-separated lines.
row	Sequence	z-score
24	GGAAGACGGCAAUCAACCATT against Cyp2c37	inactive: 1.09
25	GGGCUAAUGAGAUAGGUUUTT against Slc19a2	inactive: 0.453

# (list continues)

row,Sequence,z-score
1,CCUUUCUUGUGUUUACAGGTT against P2ry6,inactive: -0.278
2,GUAUGCUAGCAUGAUCAACTT against Ndufa3,inactive: 0.345
3,GGAGAACAAAACCUCAGGATT against Hoxb7,inactive: -2.32
4,GGGACUGAGGACUACAUUCTT against 1500010M16Rik,inactive: -0.588
5,GCGAUUGAAAACAUACUUCTT against Chst10,inactive: 0.741
6,GGAAGAAUGUAUGAACUGUTT against Emid2,inactive: 0.517
7,GCUACCACUUCUUUAAUAATT against Hrpt2,inactive: -3.24
8,UGGCGAGAUCGGCAUUGGUTT against Ren2,inactive: -0.43
9,GGGUAUGGUGGUCAAUAAATT against Gm606,inactive: -1.21
10,GGCUGGAUGUAGAAAAUAUTT against Calmbp1,inactive: -2.61
11,GGUCAUCAAACACAAUUUATT against Prlr,inactive: -0.323
12,GGAGAAGAAGGUGAAGAAGTT against Ppp1r3b,inactive: 1.11
13,CCACCGACUGUGACAUUGUTT against BC016201,inactive: -1.34
14,CGACAACCAAAUCAUCACCTT against Gnb2,inactive: 0.916
15,GCGGAUGAAUACUUACUUATT against 5730577I03Rik,inactive: -0.788
16,GGAAGCCAAGUGUACAUUUTT against Clca4,inactive: -0.289
17,GCAUAUUGUGCGACUUUUCTT against AW544865,inactive: -2.39
18,GGCCGCCCUAAAAAGAAGCTT against Olfr95,inactive: 0.773
19,GGCCAGGUUGAGGAUUUUGTT against Nol5,inactive: -0.336
20,GGAUUUGUUAACCAGACAUTT against Cab39l,inactive: -0.247
21,GGGCAAGGAUUCUUUGUAUTT against Rpl36a,inactive: -2.35
22,GCUCCCACACUUCAUCCCUTT against 1700029G01Rik,inactive: 0.717
23,GGAGUAUGAGAUGCAGUGUTT against 1110028N05Rik,inactive: -2.5
24,GGAGAAACUCAACUCUCUCTT against A330102K23Rik,inactive: 0.165
25,GGAGGAGGAGCUGAAGAAATT against Atp12a,inactive: -1.04
26,GGCCAAACGGAAAUUCAGCTT against Rax,inactive: 0.903

row,Sequence,z-score
1,GGAGACAUGGACCAUGGCUTT against Mapt,inactive: 1.44
2,CGGCCCUAUAGUUUUCUGGTT against BC022692,inactive: 1.61
3,GGGAAAGUCGAGCUUUUUCTT against H28,inactive: -0.141
4,GGCUCAAGUAUGAGUCUCATT against 2810048G17Rik,inactive: -1
5,GGAGAAAGAUGUUUACCGATT against Hyal2,inactive: 1.49
6,GCUCAUAUACACCAUUUCUTT against Gm905,inactive: 0.955
7,GCCAGAUCUCAAGAGGAUCTT against Chn2,inactive: 0.734
8,GCAGCUCCAAAUCCUGUUCTT against Asb16,active: -1.78
9,GGAAAUCGUAAAGUUUAGCTT against Temt,inactive: 0.841
10,GCUCAACAAAGCCUGUUCGTT against Zp3,inactive: 1.34
11,CCGUUUACUUCGUCCAAGUTT against Crlf1,inactive: 1.01
12,GGGAUGAGAAAGAUGUGCCTT against C530008M17Rik,inactive: 0.626
13,GCAGUACCGAGCAGCAGAATT against 2410021P16Rik,inactive: -0.712
14,GCUUUGAGACCUAAUGAUGTT against 1810024B03Rik,inactive: 0.159
15,GCUUUAGAAUCCAAUACAATT against Zhx1,inactive: -0.473
16,GGUCAAGAAGUAUUUUGUCTT against Fbxo6b,inactive: 1.42
17,CGGAAAGCACAAAAACACUTT against Ocilrp1,inactive: 0.829
18,GGCUGUCUGCUGAAAUGAUTT against 9330177P20Rik,inactive: -0.478
19,GCGAUUAUUUCGCUUUGGATT against Pcdha12,inactive: -0.675
20,CCAGAUUUCCUGCAUGGCUTT against 0610006I08Rik,inactive: 1.42
21,GGGCAACCUUCGUGUCAAGTT against 4933406E20Rik,inactive: -1.32
22,UCUCUCAUGAACUUCCACATT against Olfr1321,inactive: -0.582
23,CCAAUGGGCAAUGGAAUGATT against Sftpd,inactive: -0.692
24,CCAAGGGUUGCUUCGAGCATT against Upk1a,inactive: 1.18
25,CCAUGAAUAGCAUCUUUGCTT against Adamtsl2,inactive: 0.834
26,GGAGAUUGUGACUGCUUUATT against A830091I15Rik,inactive: -0.485

row,Sequence,z-score
1,GGGACAGAUACUAAACUCUTT against Wfdc2,inactive: -1.29
2,CCCAUCAUAAGGCAUGUAUTT against Olfr748,inactive: -0.559
3,CCAAGAAUCACUGUGUUUATT against Mcf2l,inactive: 0.495
4,GGCCAGGAAAAAAUCUGCATT against Neu1,inactive: 0.502
5,CCCUUUUGGAAACACUUUUTT against Ehd2,inactive: 0.472
6,GCAGUUCAAGCAACGACGCTT against Pou3f1,inactive: 0.405
7,GGCAUGAACUCAACAGAUUTT against Tnfrsf21,inactive: -1.56
8,GGCCAUACUAUCUAUGCAATT against Ablim1,inactive: 0.156
9,GGUCGAGUAUGCCUACAGUTT against Tcfl4,inactive: -1.66
10,GGAAGAAGCGAAGGGCACUTT against Ndufb7,inactive: -1.47
11,GCUUCGACGGUGUAUGGAATT against Cav3,inactive: -2.17
12,GGAGUUAAAGUCACUGUUUTT against Mapkap1,inactive: 0.619
13,GCGUGCUGGUUUUCUGAUUTT against BC019206,inactive: -1.24
14,GGCUUUCUAAGAGACUAUUTT against Wnt7a,inactive: 1.05
15,GCCUAUGCCCUGCAUAAACTT against Hdac8,inactive: 0.227
16,GGUGAGAAAAGUGCAAGGCTT against Rps6kb2,inactive: -1.9
17,GGAAAUUUGCUCAUUCUAATT against Olfr1204,inactive: -0.324
18,CGACGAAGCGACCAUUCUUTT against Igj,inactive: 0.192
19,GGAUUCAGGAACACGGAGATT against D17H6S53E,inactive: 1.9
20,GCAAUAACAGAUCUCGUUUTT against B3galt5,inactive: 0.983
21,GGCUCUCACAGAUCCUAAATT against Abcd3,inactive: 0.182
22,GGAACCUGUAAAAGCCUCUTT against Il1f6,inactive: 0.139
23,CCAGAUGUUGGAUAAAACGTT against Fbxw10,inactive: -0.204
24,CCAAUGCUGAGGAGUCUUCTT against BC030335,inactive: -1.83
25,GGGUUUUCCGCAUCUUCAATT against Kcna3,inactive: -0.362
26,GGAGAUAACAGAUCUGUUUTT against 1810073G14Rik,inactive: -0.0931
